# According to PubChem BioAssay AID2685 (National Center for Advancing Translational Sciences (NCATS), 2010):
# Some of the results follow. Further columns of the screen follow, without active or inactive calls. Compounds called inactive in the main read-out are mostly missing here. Potencies come from curve fits of mixed quality, noted in brackets.
# Assay: qHTS Assay for Lipid Storage Modulators in Drosophila S3 Cells;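 as to cell number change: cells counted by Cell Tracker Red CMTPX staining in the red channel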
# Conditions: BODIPY lipid droplet fluorescence, 18-24 h; for cell number change: measured here: cell count max response, cells fed with added oleic acid
# Procedure, shortened: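 Drosophila S3 cells loaded with oleic acid (400 uM, as added) and compounds at several concentrations; lipid droplets imaged by 488-nm laser-scanning cytometry, 500–530 nm intensity and object ratio to cell channel. Percent activity normalized to 20 uM Triacsin C.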
# [1] = measured here: lipid fluorescence (Fed channel) AC50, cells fed with added oleic acid
# [2] = measured here: cell number channel AC50, cells fed with added oleic acid
SMILES,cell number change [%],AC50 [1],AC50 [2]
Cc1cc(C)c(S(=O)(=O)Nc2cc(SCC(=O)O)c(O)c3ccccc23)cc1C,-31.8,"6.51 µM [rising, single point]",–
COc1ccc(-c2cc(C(=O)NC3CCCC3)no2)cc1OC,-3.18,"0.517 µM [rising, full curve]",–
OC(CN1CCN(c2ncc(C(F)(F)F)cc2Cl)CC1)c1ccccc1 (stereo not given),-7.44,–,–
CN(C)/C=N/NC(=O)c1ccccc1,5.48,"6.51 µM [falling, single point]","3.66 µM [falling, single point]"
CC(N=c1ccccn1C(=O)Nc1ccc(Cl)cc1)c1ccco1 (stereo not given),-16.5,"0.731 µM [falling, single point]",–
COc1ccccc1N1CCN(CCN2C(=O)C3CCCN3C2=O)CC1 (stereo not given),13.1,"2.31 µM [rising, partial curve]",–
N#CCCN1CCN(S(=O)(=O)c2ccc(S(=O)(=O)NCC3CCCO3)cc2)CC1 (stereo not given),4.28,"25.9 µM [falling, single point]",–
COc1cc2c(cc1OC)C1=CC(=O)C(=O)N1C(C)(C)C2,-41.9,"20.6 µM [falling, partial curve]","18.4 µM [falling, partial curve]"
CC(C(=O)NC1CCCC1)N(Cc1ccco1)C(=O)c1snc(C(=O)NC2CCCC2)c1N (stereo not given),-22.9,"0.0651 µM [rising, full curve, poor fit]",–
CCOc1ccccc1NS(=O)(=O)c1c(C)[nH]c(C)c1C(=O)N1CCCCC1,3.36,–,–
COc1ccc(N(C(=O)c2cccc([N+](=O)[O-])c2)S(=O)(=O)c2cccs2)cc1,-16.3,"29.1 µM [falling, single point]",–
CN(C(=O)COc1ccc(Cl)cc1Br)C1CCCCC1,-45,"6.51 µM [rising, single point]","10.3 µM [falling, partial curve]"
CCOc1cc(C(=O)NC2=NCCS2)cc(OCC)c1OCC,47,"5.17 µM [rising, full curve]","1.84 µM [rising, full curve, poor fit]"
Cc1ccccc1/C=N/NC(=O)c1sccc1C,31.3,"8.2 µM [rising, partial curve]","3.26 µM [rising, partial curve]"
CN(CC(=O)Nc1ccccc1N1CCOCC1)S(=O)(=O)c1ccc(Cl)cc1,18.4,–,"1.46 µM [rising, partial curve]"
CSc1ccccc1NC(=O)c1cc(Cl)sc1Cl,11.1,"0.651 µM [rising, full curve, poor fit]",–
COCCn1c(SCC(=O)NC2CCCC2)nnc1-c1ccco1,–,"0.112 µM [falling, full curve, poor fit]",–
Cc1cccc(N2CCN(c3ccc4cc(S(=O)(=O)N5CCCCC5)ccc4n3)CC2)c1C,15.3,"23.1 µM [rising, partial curve]",–
Cc1cccc(NC(=S)NCCC(C)C)c1,-8.31,"6.51 µM [falling, partial curve]",–

SMILES,cell number change [%],AC50 [1],AC50 [2]
CCN(CC)S(=O)(=O)c1ccc(NC2c3ccccc3C(=O)N2Cc2ccc3c(c2)OCO3)cc1 (stereo not given),–,"0.731 µM [rising, full curve]","0.517 µM [rising, full curve]"
O=C1C=C(c2cccc3c2oc2ccccc23)C[C@@H](c2ccc(F)cc2)C1,-5.5,"0.116 µM [falling, single point]",–
Cc1cc(C)n2c(SCC(=O)Nc3ccccc3)nnc2n1,23.6,"23.1 µM [rising, single point]",–
CC(=O)Nc1ccc2nc(NC(=O)COc3ccccc3Cl)sc2c1,67,"23.1 µM [rising, partial curve]","9.2 µM [rising, partial curve, poor fit]"
CSc1c(CC(=O)Nc2ccccc2C(F)(F)F)n(Cc2ccccc2)c2ccccc12,2.67,"0.461 µM [falling, full curve, poor fit]","1.3 µM [falling, full curve]"
COc1cccc(C(=O)N/N=C2/SCC(=O)N2CCc2ccc(OC)c(OC)c2)c1,–,"1.84 µM [rising, partial curve]","2.31 µM [rising, partial curve]"
Cc1ccc(C(=O)NCCCn2ccnc2)cn1,14.5,"6.51 µM [falling, single point]","2.59 µM [falling, partial curve]"
COc1ccc(Cl)cc1NC(=O)CN1CCCCCC1,-21.9,"5.8 µM [falling, partial curve]","2.59 µM [falling, single point]"
CCOc1cccc2cc(C(=O)NC(C)c3ccccc3)c(=N)oc12 (stereo not given),32.4,"29.1 µM [rising, single point]","3.66 µM [rising, full curve]"
CCn1c(COc2cc(C)ccc2C(C)C)nnc1SCC(=O)Nc1nccs1,15.5,"3.26 µM [rising, full curve, poor fit]",–
CCCCC1C(=O)CC[C@H]2[C@@H]1CC(=O)[C@@H]2C/C=C\CCCC(=O)O (stereo not given in full),–,"8.2 µM [falling, partial curve]",–
Cc1cc(C(=O)CSc2nnnn2-c2ccccc2)c(C)n1CCc1ccccc1,–,"2.06 µM [rising, partial curve]","1.16 µM [rising, partial curve]"
O=C(COC(=O)CSc1ccc([N+](=O)[O-])cc1)NCCCc1ccccc1,5.42,–,–
C/C=C(\C)C(=O)Nc1cccc(C2=NOC3(C2)C[C@H](C(N)=O)N(C(=O)C(c2ccccc2)c2ccccc2)C3)c1 (stereo not given in full),13.6,"1.46 µM [rising, partial curve]",–
Cc1ccc(C(=O)N[C@H](C(=O)N2CCN(c3ccccc3F)CC2)C(C)C)cc1,12.6,"3.66 µM [rising, full curve]",–
C/C(=N\NC(=O)c1ccc(Cl)cc1)c1cccs1,-6.63,–,–
Cc1ccc(CNc2nc(C)c(C(=O)N(C)C)s2)cc1,14,"1.03 µM [falling, single point]",–
CCC(C)Sc1nc2c(c(=O)n1C)SC(C)C2 (stereo not given),21.4,"0.651 µM [falling, full curve]",–
Cc1cc(C)nc(NS(=O)(=O)c2ccc(NC(=O)CN3C(=O)c4ccccc4C3=O)cc2)n1,–,"5.8 µM [falling, partial curve]",–

# Four compounds out of the list, sorted by molar mass, ascending:
SMILES,cell number change [%],AC50 [1],AC50 [2]
COc1ccc(Cl)cc1NC(=O)CN1CCCCCC1,-21.9,"5.8 µM [falling, partial curve]","2.59 µM [falling, single point]"
CN(CC(=O)Nc1ccccc1N1CCOCC1)S(=O)(=O)c1ccc(Cl)cc1,18.4,–,"1.46 µM [rising, partial curve]"
CSc1c(CC(=O)Nc2ccccc2C(F)(F)F)n(Cc2ccccc2)c2ccccc12,2.67,"0.461 µM [falling, full curve, poor fit]","1.3 µM [falling, full curve]"
CCN(CC)S(=O)(=O)c1ccc(NC2c3ccccc3C(=O)N2Cc2ccc3c(c2)OCO3)cc1 (stereo not given),–,"0.731 µM [rising, full curve]","0.517 µM [rising, full curve]"

# Continued:

SMILES,cell number change [%],AC50 [1],AC50 [2]
COc1ccc(N2CCN(C(c3cccs3)C(C)NS(=O)(=O)c3ccccc3)CC2)cc1 (stereo not given),74.9,–,"16.4 µM [rising, single point]"
CCOC(=O)c1ccc(NC(=O)C2(c3ccc(OC)cc3)CCCC2)cc1,–,"4.11 µM [rising, partial curve]",–
CN(C)C1(CNC(=O)C2CCN(S(=O)(=O)c3c(Cl)cccc3Cl)CC2)CCCCC1,68.7,–,"18.4 µM [rising, single point]"
Cn1ccnc1SCC(=O)NC12CC3CC(CC(C3)C1)C2,-9.03,–,–
CCOC(=O)c1ccc(Oc2nc(NC(C)(C)C)nc(N(C)C)n2)cc1,-25.5,"10.3 µM [falling, partial curve]",–
Cc1ccc(NC(=O)Cn2c(O)c(N=NC(=O)c3ccncc3)c3ccccc32)cc1,-23.2,"29.1 µM [falling, single point]",–
CCOc1ccc(NC(=O)CSc2nnc(CNC(=O)c3cccs3)o2)cc1,21.5,–,"0.291 µM [rising, full curve, poor fit]"
O=c1cc(N2CCOCC2)cnn1-c1ccccc1,-15.3,"4.61 µM [rising, full curve, poor fit]","0.116 µM [falling, full curve, poor fit]"
Cc1ccc2nc(/C(C#N)=C/c3ccc(O)c(O)c3)[nH]c2c1,-32,"29.1 µM [falling, single point]",–
Cc1ccc(C(=O)CCC(=O)OCC(=O)NNC(=O)c2ccccc2Cl)cc1,-21.6,"0.13 µM [rising, full curve, poor fit]","0.731 µM [falling, full curve, poor fit]"
Cc1ccc(F)c(CNC(=O)C2CCC(=O)N(CCN3CCOCC3)C2)c1F (stereo not given),-4.53,"0.58 µM [rising, single point]",–
N[C@@H](Cc1ccccc1)C(=O)N1CCC(C(=O)N[C@@H](Cc2c[nH]c3ccccc23)C(=O)O)CC1,38.7,–,"10.3 µM [rising, partial curve]"
CC(C)(Oc1ccc(Cl)cc1)C(=O)Nc1ccc2oc(=O)ccc2c1,26.7,"6.51 µM [rising, single point]",–
CCOc1cccc(CN2CCN(c3cccc(C(F)(F)F)c3)CC2)c1O,-18.1,"0.291 µM [falling, full curve, poor fit]",–
Cc1nnc(SCC(=O)N2CC(=O)Nc3ccccc32)n1C,20.7,"18.4 µM [falling, single point]",–
O=C(CN(c1ccc(Cl)c(C(F)(F)F)c1)S(=O)(=O)c1ccccc1)N/N=C/c1cccc2c1OCCO2,-31.2,–,"20.6 µM [falling, single point]"
CCn1c(=O)c2cc(S(=O)(=O)NCc3ccccc3)ccc2n(CC)c1=O,-10.9,"3.26 µM [rising, partial curve]",–
O=C(CCC(=O)c1cccs1)Nc1ccc(N2CCCCC2)cc1,25.7,"29.1 µM [rising, single point]",–
